Results on one substance are retold here after patent US20180002377 (published 2018).

This data set is described as follows: peptide synthesis. The note with it: purification step, oxalate.

Carfilzomib registered a step yield of 80%.
